Results are given in words; binding and its absence hold for the method and conditions named. In cells and extracts the contact can be indirect. Binding calls can cover weak binding; strength is not graded here. Tags and fused reporters may be left off the sequences shown.
Molecular target: T1, Flag-tagged Wnt11 (UniProt P48615)
T1 sequence: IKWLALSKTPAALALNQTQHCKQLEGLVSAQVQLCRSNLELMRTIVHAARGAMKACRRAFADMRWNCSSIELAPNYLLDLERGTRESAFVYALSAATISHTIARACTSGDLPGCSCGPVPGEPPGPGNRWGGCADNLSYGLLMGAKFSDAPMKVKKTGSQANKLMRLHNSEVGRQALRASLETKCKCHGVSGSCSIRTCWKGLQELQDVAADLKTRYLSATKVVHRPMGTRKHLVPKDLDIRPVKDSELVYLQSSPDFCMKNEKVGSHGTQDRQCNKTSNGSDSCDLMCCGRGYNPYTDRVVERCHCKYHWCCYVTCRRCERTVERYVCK
Assay: pull-down; solution binding assay: Flag-Wnts immobilised on beads, incubated with the Myc-tagged soluble ectodomain protein; bound proteins resolved by SDS-PAGE and blotted with anti-Myc and anti-Flag

By UniProt entry, the sequences of proteins in these tests, tags left out. Where a name states a change or a piece, a line headed by the entry shows the natural chain unless it says otherwise.
UniProt Q61006: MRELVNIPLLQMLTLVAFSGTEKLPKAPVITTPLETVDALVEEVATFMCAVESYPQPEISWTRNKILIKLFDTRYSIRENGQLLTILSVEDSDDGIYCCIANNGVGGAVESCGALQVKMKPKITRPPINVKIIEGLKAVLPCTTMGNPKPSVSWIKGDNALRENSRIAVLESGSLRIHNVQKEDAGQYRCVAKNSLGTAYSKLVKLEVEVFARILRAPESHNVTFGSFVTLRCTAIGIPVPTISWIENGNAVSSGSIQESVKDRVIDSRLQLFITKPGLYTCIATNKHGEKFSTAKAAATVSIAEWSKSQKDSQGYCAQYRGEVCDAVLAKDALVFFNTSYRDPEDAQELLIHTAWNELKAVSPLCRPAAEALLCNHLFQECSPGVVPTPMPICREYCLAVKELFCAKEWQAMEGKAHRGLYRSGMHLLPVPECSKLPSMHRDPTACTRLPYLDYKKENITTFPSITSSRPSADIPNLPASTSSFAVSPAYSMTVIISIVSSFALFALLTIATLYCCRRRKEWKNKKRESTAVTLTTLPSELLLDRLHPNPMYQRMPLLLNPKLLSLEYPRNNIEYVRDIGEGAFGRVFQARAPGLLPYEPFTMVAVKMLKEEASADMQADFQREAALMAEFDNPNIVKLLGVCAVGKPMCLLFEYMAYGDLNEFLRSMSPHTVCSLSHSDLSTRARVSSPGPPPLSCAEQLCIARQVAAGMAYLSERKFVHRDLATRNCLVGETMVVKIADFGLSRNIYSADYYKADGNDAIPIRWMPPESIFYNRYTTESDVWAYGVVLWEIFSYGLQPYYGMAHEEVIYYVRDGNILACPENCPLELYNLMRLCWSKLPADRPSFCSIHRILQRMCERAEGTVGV

**Q.** With “ectΔCRD, a mutant MuSKect without the CRD (from UniProt Q61006) (domain or fragment)” as the substance, how does the binding read?
**A.** binds
